Values of other authors in patent US7825092B2, “Dendroaspis natriuretic peptide for treatment of cancer” (University of South Florida, priority 2006, dated 2010).

Details: healthy humans, endogenous level; cited from earlier work

Row | Compound | circulating concentration [pg/mL]
1 | kaliuretic peptide | 213 ± 42
2 | long acting natriuretic peptide (NPMYNAVSNADLMDFKNLLDHLEEKMPLED; Long-acting natriuretic peptide; UniProt P01160 26-55, looked up, fragment) [LANP, cardiac hormone, first 30 amino acids of the 126 a.a. atrial natriuretic peptide prohormone] | 1528 ± 158
3 | vessel dilator (EVSPAQRDGGALGRGPWDSSDRSALLKSKLRALLTAP; Vessel dilator; UniProt P01160 86-122, looked up, fragment) [cardiac hormone, a.a; 31-67 of the 126 a.a. atrial natriuretic peptide prohormone] | 1595 ± 157
4 | CC[C@H](C)[C@@H]1NC(=O)[C@H](CCCNC(=N)N)NC(=O)[C@H](CC(=O)O)NC(=O)[C@H](CCSC)NC(=O)[C@H](CCCNC(=N)N)NC(=O)CNC(=O)CNC(=O)[C@H](Cc2ccccc2)NC(=O)[C@@H](NC(=O)[C@H](CO)NC(=O)[C@H](CO)NC(=O)[C@H](CCCNC(=N)N)NC(=O)[C@H](CCCNC(=N)N)NC(=O)[C@H](CC(C)C)NC(=O)[C@@H](N)CO)CSSC[C@@H](C(=O)N[C@@H](CC(N)=O)C(=O)N[C@@H](CO)C(=O)N[C@@H](Cc2ccccc2)C(=O)N[C@@H](CCCNC(=N)N)C(=O)N[C@@H](Cc2ccc(O)cc2)C(=O)O)NC(=O)CNC(=O)[C@H](CC(C)C)NC(=O)CNC(=O)[C@H](CO)NC(=O)[C@H](CCC(N)=O)NC(=O)[C@H](C)NC(=O)CNC1=O [ANP, atrial natriuretic peptide] | 63 ± 2
